## Primary screen of a compound library

Amino acid sequences for entries named in this document (tags omitted). Residues count along the entry.
UniProt Q8IDJ8, 1-583: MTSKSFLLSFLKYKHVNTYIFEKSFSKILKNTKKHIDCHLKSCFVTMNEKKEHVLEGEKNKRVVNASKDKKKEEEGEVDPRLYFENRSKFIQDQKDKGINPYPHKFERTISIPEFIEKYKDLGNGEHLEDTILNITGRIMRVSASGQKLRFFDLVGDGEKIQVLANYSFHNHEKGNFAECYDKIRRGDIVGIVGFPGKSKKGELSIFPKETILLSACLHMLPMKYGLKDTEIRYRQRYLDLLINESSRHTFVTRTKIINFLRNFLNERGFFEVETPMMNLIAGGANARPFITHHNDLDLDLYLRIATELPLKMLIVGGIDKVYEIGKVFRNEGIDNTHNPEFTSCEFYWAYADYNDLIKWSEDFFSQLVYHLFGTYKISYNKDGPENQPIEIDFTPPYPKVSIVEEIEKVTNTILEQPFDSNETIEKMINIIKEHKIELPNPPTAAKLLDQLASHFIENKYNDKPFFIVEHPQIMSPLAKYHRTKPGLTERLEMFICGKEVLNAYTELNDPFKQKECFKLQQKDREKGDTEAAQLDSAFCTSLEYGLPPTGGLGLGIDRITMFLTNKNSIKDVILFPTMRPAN
UniProt A4I591, 1-473: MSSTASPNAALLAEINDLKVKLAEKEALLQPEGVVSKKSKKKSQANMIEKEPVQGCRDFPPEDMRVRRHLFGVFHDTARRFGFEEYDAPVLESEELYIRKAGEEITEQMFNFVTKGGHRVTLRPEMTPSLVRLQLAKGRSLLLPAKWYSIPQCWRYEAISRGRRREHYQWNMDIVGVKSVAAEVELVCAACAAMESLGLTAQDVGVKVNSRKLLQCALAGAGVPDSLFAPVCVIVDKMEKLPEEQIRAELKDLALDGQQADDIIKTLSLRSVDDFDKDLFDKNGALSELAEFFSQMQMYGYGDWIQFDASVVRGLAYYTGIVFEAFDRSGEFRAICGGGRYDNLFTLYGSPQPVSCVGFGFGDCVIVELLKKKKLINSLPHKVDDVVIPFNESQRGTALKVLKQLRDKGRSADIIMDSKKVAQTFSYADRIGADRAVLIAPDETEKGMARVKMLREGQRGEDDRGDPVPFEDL
UniProt Q4DA54, 1-478: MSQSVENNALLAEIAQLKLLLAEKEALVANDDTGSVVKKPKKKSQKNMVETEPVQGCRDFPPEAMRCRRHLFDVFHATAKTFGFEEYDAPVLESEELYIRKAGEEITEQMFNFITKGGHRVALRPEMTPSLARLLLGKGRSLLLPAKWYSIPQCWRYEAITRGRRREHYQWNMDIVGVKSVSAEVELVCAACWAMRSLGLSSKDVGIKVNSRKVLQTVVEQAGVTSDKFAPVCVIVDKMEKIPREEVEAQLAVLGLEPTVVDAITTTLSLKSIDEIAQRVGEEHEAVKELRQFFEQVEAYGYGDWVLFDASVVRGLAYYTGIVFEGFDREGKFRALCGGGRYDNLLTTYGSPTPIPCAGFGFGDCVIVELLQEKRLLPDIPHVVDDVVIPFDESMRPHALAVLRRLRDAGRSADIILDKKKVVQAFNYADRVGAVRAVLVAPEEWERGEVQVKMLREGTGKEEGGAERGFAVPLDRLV
UniProt P9WPC5, whole entry: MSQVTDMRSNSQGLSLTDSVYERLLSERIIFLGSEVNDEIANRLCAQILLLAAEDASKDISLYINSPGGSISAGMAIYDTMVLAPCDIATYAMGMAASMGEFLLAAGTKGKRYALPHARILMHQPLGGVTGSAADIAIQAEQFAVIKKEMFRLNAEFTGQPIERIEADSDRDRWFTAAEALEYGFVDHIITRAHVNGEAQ
UniProt P9WPC3, whole entry partner: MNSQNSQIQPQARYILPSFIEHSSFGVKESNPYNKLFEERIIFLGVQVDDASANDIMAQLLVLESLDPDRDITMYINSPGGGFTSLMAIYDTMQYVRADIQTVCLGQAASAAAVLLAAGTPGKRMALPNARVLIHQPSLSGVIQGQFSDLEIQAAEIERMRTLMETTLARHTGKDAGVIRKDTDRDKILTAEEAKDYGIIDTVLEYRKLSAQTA

Source: ChEMBL document CHEMBL3988442, “University of Dundee, Small-Polar-MMV Screening Library” (2021).

PfKRS1: 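Enzyme assay of the cytosolic lysyl-tRNA synthetase in 384-well plates, read by luminescence. Target: Lysine-tRNA ligase, Plasmodium falciparum 3D7 (UniProt Q8IDJ8). Compounds at 30 µM. Higher reads as stronger inhibition, judged from the few compounds that gave an IC50. About 69,000 compounds were tested under these conditions; 0.071% (about 49) showed 50% or more at least once.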
LiHisRS: 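Enzyme assay of histidyl-tRNA synthetase; the read-out is not stated. Target: Histidine-tRNA ligase, Leishmania infantum (UniProt A4I591). Compounds at 30 µM. Higher reads as stronger inhibition (inferred: compounds with an IC50 in retests scored well above the rest). The assay is labelled LdHisRS but filed under L. infantum. About 69,000 compounds were tested under these conditions; 0.6% (about 410) showed 50% or more at least once.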
TcHisRS: 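Histidine-tRNA ligase, Trypanosoma cruzi CL Brener (UniProt Q4DA54). Enzyme assay of histidyl-tRNA synthetase; the read-out is not stated. Compounds at 30 µM. Higher reads as stronger inhibition (inferred: compounds with an IC50 in retests scored well above the rest). Size under these conditions: about 69,000 compounds, about 31 of them at 50% or above in at least one test.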
Leishmania in macrophages: 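Cell assay of Leishmania donovani living inside macrophages; the read-out is not stated. Tested at 30 µM. Higher reads as stronger inhibition (inferred: compounds with an IC50 in retests scored well above the rest). Size under these conditions: about 69,000 compounds, about 1,000 of them at 50% or above in at least one test.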
ClpP1P2: 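ClpP1P2, Mycobacterium tuberculosis (UniProt P9WPC5 and UniProt P9WPC3). Protease assay of ClpP1P2, read by the AMC dye that it sets free. Tested at 50 µM. Higher reads as stronger inhibition, judged from the few compounds that gave an IC50. Most other retested compounds had strongly negative values. Size under these conditions: about 69,000 compounds, about 10 of them at 50% or above in at least one test.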

Each number is a percent effect as filed. The controls that fix the scale are not given in the record; negative values are as filed. This is an unselected part of the compounds tested. Two or more numbers in one place are separate tests of the same structure; such repeats can differ widely.

{"compound": "Cc1ccc(CNc2ccn(CCc3ccncc3)n2)s1", "PfKRS1": -1.916, "LiHisRS": 22.86, "TcHisRS": 3.896, "Leishmania in macrophages": -20.36, "ClpP1P2": -3.97}
{"compound": "CCOC(=O)Cc1csc(NC(=O)c2ccc(=O)[nH]n2)n1", "PfKRS1": 2.837, "LiHisRS": 5.479, "TcHisRS": 6, "Leishmania in macrophages": 2.336, "ClpP1P2": -5.215}
{"compound": "COCCc1noc(-c2ccc(=O)[nH]c2)n1", "PfKRS1": 7.214, "LiHisRS": 11.86, "TcHisRS": 0.4878, "Leishmania in macrophages": 17.72, "ClpP1P2": -10.53}
{"compound": "Cc1ccc(CN2C[C@@H]3C[C@H](C(=O)NCC4CC4)N(C)[C@@H]3C2)o1", "PfKRS1": 2.93, "LiHisRS": 10.09, "TcHisRS": 1.442, "ClpP1P2": 6.037}
{"compound": "O=C(C1CCCC1)N1CCN(Cc2nc(-c3ccco3)no2)CC1", "PfKRS1": 0.9716, "LiHisRS": 12.31, "TcHisRS": -2.682, "Leishmania in macrophages": 23.39, "ClpP1P2": 9.863}
{"compound": "Cc1cc(=O)n(CC(=O)NCCC(C)C)c(-c2cccc(Cl)c2)n1", "PfKRS1": -1.62, "LiHisRS": -6.604, "TcHisRS": 3.347, "Leishmania in macrophages": -1.123, "ClpP1P2": -6.758}
{"compound": "Cc1n[nH]c(C)c1NC(=O)C1CCCN(C(=O)NCC(C)C)C1", "stereo": "stereo not drawn", "PfKRS1": -0.5023, "LiHisRS": 2.174, "TcHisRS": 7, "Leishmania in macrophages": 17.37, "ClpP1P2": -11.98}
{"compound": "[H][C@@]12COC[C@]1(COCc1cccnc1)CN(C(=O)c1csc(C)n1)C2", "Leishmania in macrophages": "-3.63 & 8.996"}
{"compound": "Cc1c(C(=O)NC2=NCCS2)cnn1-c1ccc(Cl)cc1", "PfKRS1": -0.5286, "LiHisRS": 5.435, "TcHisRS": 0.9901, "Leishmania in macrophages": 25.63, "ClpP1P2": 4.985}
{"compound": "CC(C)c1nc(/C=C/c2cnn(-c3ccc(Cl)cc3)c2)ncc1C(=O)O", "PfKRS1": 2.712, "LiHisRS": 11.86, "TcHisRS": 0.4878, "Leishmania in macrophages": 5.68, "ClpP1P2": -16}
{"compound": "CC(=O)c1ccc(CN2C[C@@H](CN3CCC(O)CC3)[C@@H](CO)C2)cc1", "PfKRS1": 0.1988, "LiHisRS": 9.167, "TcHisRS": -14.47, "Leishmania in macrophages": 14.24, "ClpP1P2": -1.723}
{"compound": "COCCC(=O)N1CCC(c2cncc(Oc3cccnc3)n2)CC1", "PfKRS1": 5.198, "LiHisRS": 4.124, "TcHisRS": 5.556, "Leishmania in macrophages": "11.08 & -14.54", "ClpP1P2": 11.9}
{"compound": "COc1ccc(CN2CCC3(CC(C(=O)NCC(C)C)=NO3)C2)cc1", "stereo": "stereo not drawn", "PfKRS1": 4.01, "LiHisRS": 9.434, "TcHisRS": 7.778, "Leishmania in macrophages": 8.074, "ClpP1P2": -5.684}
{"compound": "Cc1ncc(CN2CCN(C(=O)C3CCC3)[C@@H]3CS(=O)(=O)C[C@@H]32)cn1", "PfKRS1": 4.778, "LiHisRS": 10.87, "TcHisRS": 3.96, "ClpP1P2": -5.042}
{"compound": "COCCN1CCOCC2(CCCN(Cc3cccc(F)c3)C2)C1.O=C(O)C(F)(F)F.O=C(O)C(F)(F)F", "stereo": "stereo not drawn", "Leishmania in macrophages": 3.437}
{"compound": "[H][C@]12CC[C@]([H])(CN(C(=O)c3ccccn3)C1)N(C(=O)CCN1CCCC1)C2", "Leishmania in macrophages": -81.4}
{"compound": "Cc1cc(N2CCC(N(C)C(=O)c3ccccc3)CC2)nc(C)n1", "PfKRS1": 1.982, "LiHisRS": 23.08, "TcHisRS": 1.653, "Leishmania in macrophages": 62.61, "ClpP1P2": -1.84}
{"compound": "O=C(c1ccc2c(c1)OCO2)N1CCCSCC1CN1CCCC1", "stereo": "stereo not drawn", "PfKRS1": 5.278, "LiHisRS": 26.21, "TcHisRS": 2.174, "Leishmania in macrophages": 0.1787, "ClpP1P2": -2.402}
{"compound": "c1csc(-c2noc(C3CCCOC3)n2)c1", "stereo": "stereo not drawn", "PfKRS1": 1.571, "LiHisRS": 6.806, "TcHisRS": 5.882, "Leishmania in macrophages": 21.73, "ClpP1P2": -0.05505}

For reference, 2 entries once more:

Result for COCCC(=O)N1CCC(c2cncc(Oc3cccnc3)n2)CC1 was PfKRS1: 5.198%; LiHisRS: 4.124%; TcHisRS: 5.556%; Leishmania in macrophages: 11.08% & -14.54%; ClpP1P2: 11.9%.
Result for [H][C@]12CC[C@]([H])(CN(C(=O)c3ccccn3)C1)N(C(=O)CCN1CCCC1)C2 was Leishmania in macrophages: -81.4%.